Assay results taken from publication PMC8164026, “Intrapulmonary administration of purified NEIL2 abrogates NF-κB–mediated inflammation”.
Results are given in words; binding and its absence hold for the method and conditions named. For part of these data: Binding seen in cells or lysates may run through a third protein. Some results given as binding are weak or reduced against the parent protein; the word gives no strength. Tags and fused reporters may be left off the sequences shown.

By UniProt entry, the sequences of proteins in these tests, tags left out. Where a name states a change or a piece, a line headed by the entry shows the natural chain unless it says otherwise.
UniProt Q04206: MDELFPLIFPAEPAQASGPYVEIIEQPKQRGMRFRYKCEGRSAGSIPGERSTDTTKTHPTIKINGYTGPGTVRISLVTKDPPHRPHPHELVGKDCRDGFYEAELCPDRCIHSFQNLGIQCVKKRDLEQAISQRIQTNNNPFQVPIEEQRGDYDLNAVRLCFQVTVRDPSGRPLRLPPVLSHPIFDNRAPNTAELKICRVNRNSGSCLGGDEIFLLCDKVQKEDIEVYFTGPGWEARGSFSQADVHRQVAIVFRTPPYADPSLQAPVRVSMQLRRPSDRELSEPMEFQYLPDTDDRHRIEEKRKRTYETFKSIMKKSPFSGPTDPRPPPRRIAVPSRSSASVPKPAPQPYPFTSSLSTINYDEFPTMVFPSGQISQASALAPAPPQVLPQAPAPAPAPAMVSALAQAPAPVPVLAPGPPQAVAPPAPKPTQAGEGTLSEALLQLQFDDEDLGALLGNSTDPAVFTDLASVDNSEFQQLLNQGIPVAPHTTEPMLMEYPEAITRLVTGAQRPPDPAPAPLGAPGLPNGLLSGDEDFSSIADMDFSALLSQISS

Experiments:
[1] = target: T1, Recombinant FLAG-tagged NEIL2 (NEIL2-FLAG) from h358 cells (UniProt Q969S2); assay: co-IP; anti-FLAG beads preincubated 1 h at 4 °C with whole cell lysates of h358 cells expressing control or NEIL2-FLAG vector, washed, then incubated 1 h at 4 °C with 1 μg rHis-RelA or GST-tagged RelA domains in 300 μl IP buffer (25 mM Tris-HCl pH 7.5, 150 mM NaCl, 1% Triton X-100, 5% glycerol, 1 mM DTT); immunoblot with anti-RelA, FLAG or GST; both purified
T1 sequence: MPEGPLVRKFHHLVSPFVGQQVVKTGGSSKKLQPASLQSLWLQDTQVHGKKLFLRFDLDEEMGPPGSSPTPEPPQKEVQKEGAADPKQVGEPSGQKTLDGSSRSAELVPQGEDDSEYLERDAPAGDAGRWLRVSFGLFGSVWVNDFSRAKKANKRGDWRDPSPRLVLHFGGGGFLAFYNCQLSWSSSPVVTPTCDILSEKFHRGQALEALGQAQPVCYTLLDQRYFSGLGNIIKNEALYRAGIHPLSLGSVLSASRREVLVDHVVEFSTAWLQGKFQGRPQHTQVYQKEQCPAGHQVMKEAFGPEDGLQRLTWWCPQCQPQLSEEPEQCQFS

[2] = target: T2, C-terminal FLAG-tagged Nei-like DNA glycosylase 2 (NEIL2-FLAG), stably expressed in BEAS-2B cells (UniProt Q969S2); assay: co-IP; anti-FLAG beads incubated with nuclear extracts of BEAS2B cells stably expressing NEIL2-FLAG, after TNFα treatment; immunoblot with antibodies against RelA or FLAG
T2 sequence: T1 sequence

binding [2] | Substance | binding [1]
 | GST-tagged transcription-activation domain of RelA (GST-TAD) (from UniProt Q04206 429-551) (domain or fragment) | no binding (tested: 1 μg in 300 μl of IP buffer)
 | Recombinant full-length His-tagged RelA (rHis-RelA) (from UniProt Q04206 1-551) | binds
binds | RelA (NF-κB p65), endogenous in BEAS-2B cells (from UniProt Q04206 1-551) | 
